# Values from PubChem BioAssay AID504804 (Drosophila RNAi Screening Center, 2011).
# Screen: 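dsRNAs that improve Kc cell survival under doxorubicin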 (primary screen)
# Cells: Drosophila Kc cells
# Knock-down reagent: long dsRNA against Drosophila genes, 0.5 µg dsRNA per well
# Duration: 96 h (48 h knock-down, then 48 h drug)
# Challenge: doxorubicin 5 µg/ml for 48 h, added 48 h after dsRNA
# Read-out: 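Viability measured as cellular ATP by luminescence after 48 h knock-down then 48 h doxorubicin at 5 µg/ml; unnormalised plate counts for each replicate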
# Scale: raw ATP luminescence: higher = more viable cells, protection from doxorubicin
# Rule for the call: 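Active when both duplicate wells lie at least 2 SD above the plate mean and protection is confirmed by rescreening and independent dsRNAs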
# The screen tested about 19,000 reagents; shown is an unselected part of those with a known target gene and a result. In the full data, 47 (0.25%) are marked active. 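Signals are raw, not normalised; exact z-scores behind calls not deposited; actives needed confirmation, so some wells reaching 2 SD are inactive.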 A number with no mark means an inactive call. Reagents against one gene are numbered here. A plus sign joins genes that one reagent is predicted to hit.
target gene,dsRNA no.,SD above plate mean,"raw ATP luminescence, replicate 1","raw ATP luminescence, replicate 2"
Antp (Antennapedia),1,,31610,19157
asp (abnormal spindle),1,,36090,39993
CG17298,1,,48950,39810
CG6761,1,,42403,33403
Alp4 (Alkaline phosphatase 4),1,,52260,41280
CG31106,1,,90790,95940
kon (kon-tiki),1,,72803,60553
CG15097,1,,64890,50173
CG10834,1,,49283,44697
Galphas (G protein alpha subunit s),1,,74510,66650
dpr6 (defective proboscis extension response 6),1,,43830,60407
dpr6 (defective proboscis extension response 6),2,,66667,65363
dpr6 (defective proboscis extension response 6),3,,2.14e5,2.19e5
disp (dispatched),1,,61153,59837
ND-49L (NADH dehydrogenase (ubiquinone) 49 kDa subunit-like),1,,54410,58120
CG34342,1,,61333,70403
CG30271,1,,50287,47700
CG15035,1,,46620,45350
Dbp21E2 (DEAD box protein 21E2),1,,1.04e5,66923
GlcAT-S (Glucuronyltransferase S),1,,1.01e5,60243
CG16723,1,,63620,46380
rogdi,1,,17753,16600
Ndfip (Nedd4 family interacting protein),1,,28197,22000
Gbs-70E (Glycogen binding subunit 70E),1,,36017,33970
CG14634,1,,61810,48020
CG31797,1,,61620,72857
CG31797,2,,56563,58713
CG11060,1,,68533,52717
CG3558,1,,1.17e5,72897
CG3437,1,,94803,76580
Fcp3C (Follicle cell protein 3C),1,,47050,44860
Pez,1,,25480,22993
pyd (polychaetoid),1,,79057,79647
pyd (polychaetoid),2,,55663,20773
pyd (polychaetoid),3,,63333,63263
pyd (polychaetoid),4,at least 2 SD above plate mean (active),86890,81950
pyd (polychaetoid),5,,54020,33987
pyd (polychaetoid),6,,46887,45790
pyd (polychaetoid),7,,58527,65203
boi,1,,54330,60340
boi,2,,56630,57370
CG13144,1,,43577,69520
SERCA (Sarco/endoplasmic reticulum Ca(2+)-ATPase),1,,67027,61547
pnut (peanut),1,,63990,51963
CG43775,1,,41887,47537
CG10395,1,,79403,78617
CG5122,1,,68893,92733
Wbp2 (WW domain binding protein 2),1,,45343,39073
RpS27A (Ribosomal protein S27A),1,,32823,69450
Vps52 (Vacuolar protein sorting 52),1,,24817,30840
HisT (Histamine transporter),1,,76423,73927
HisT (Histamine transporter),2,,73127,91537
HisT (Histamine transporter),3,at least 2 SD above plate mean (active),91247,86530
yip7 (yippee interacting protein 7),1,,73367,79447
CG13829,1,,59130,75180
Eip63E (Ecdysone-induced protein 63E),1,,34883,34573
CG10459,1,,32040,60793
CG18493,1,,59020,68600
CG31517,1,,2.14e5,2.11e5
CG9897 + asRNA:CR42742,1,,67240,54560
CG14074,1,,46760,36677
CG5888,1,,96063,64773
CG11843,1,,63450,48320
pain (painless),1,,31710,52160
CG7330,1,,77257,1.17e5
CG7330,2,,93407,73327
Sod3 (Superoxide dismutase 3),1,,52260,44600
CG10621,1,,71967,68317
RpL22 (Ribosomal protein L22),1,,36320,53770
CHMP2B (Charged multivesicular body protein 2b),1,,47923,41540
CG42264,1,,45650,58050
CG42264,2,,50950,55060
CG15172,1,,46923,44477
CG14294,1,,43720,31530
beat-Vc (beaten path Vc),1,,2.18e5,2.62e5
beat-Vc (beaten path Vc),2,,45923,50053
Pdi (Protein disulfide isomerase),1,,47450,42027
CG13258,1,,51273,79377
Nelf-A (Negative elongation factor A),1,,46523,32127
CG7829,1,,80510,51760
robo2 (roundabout 2),1,,1.05e5,51927
PIP82,1,,43050,42640
Cp38 (Chorion protein 38),1,,44880,36640
Mcm10 (Minichromosome maintenance 10),1,,91753,54217
CG12643,1,,4.04e5,2.96e5
CG42784,1,,1.05e5,74037
CG42784,2,,28633,34183
CG6980,1,,37323,41947
Gpb5 (Glycoprotein hormone beta 5),1,,2.21e5,2.03e5
ETH (Ecdysis triggering hormone),1,,33670,63870
Ced-12,1,,53560,72617
eIF2Bgamma (eukaryotic translation initiation factor 2B subunit gamma),1,,74780,63277
mRpL1 (mitochondrial ribosomal protein L1),1,,51850,49660
eIF3g2 (eukaryotic translation initiation factor 3 subunit g2),1,,73280,79160
Ugt302K1 (UDP-glycosyltransferase family 302 member K1),1,,21167,45403
CG7611,1,,21027,19247
Art8 (Arginine methyltransferase 8),1,,47933,90573
orion,1,,35360,46580
orion,2,,29400,38290
abo (abnormal oocyte),1,,47773,90987
CG43658,1,,2.45e5,2.72e5
CG7408,1,,63990,44613
Obp99c (Odorant-binding protein 99c),1,,59580,58820
CG31099,1,,72190,54430
DIP-delta (Dpr-interacting protein delta),1,,75780,85877
DIP-delta (Dpr-interacting protein delta),2,,79943,84723
drosha,1,,56823,65593

Entries listed above with an active call:
target gene,dsRNA no.,SD above plate mean,"raw ATP luminescence, replicate 1","raw ATP luminescence, replicate 2"
pyd (polychaetoid),4,at least 2 SD above plate mean (active),86890,81950
HisT (Histamine transporter),3,at least 2 SD above plate mean (active),91247,86530
